Results are given in words; binding and its absence hold for the method and conditions named.
What was measured:
Assay in all cases: SEC; analytical gel filtration, Superdex 75 10/300, 25 mM Tris-HCl pH 7.6, 150 mM NaCl, 1 mM DTT, constant flow-rate, 4°C; self-association (monomer or dimer); both purified
SUMO2-Ubl = SUMO2-Ubl (UniProt P61956)
SUMO2-Ubl G27V = SUMO2-Ubl G27V (UniProt P61956)
SUMO2-Ubl G24A G27V = SUMO2-Ubl G24A G27V (UniProt P61956)

The chains behind the UniProt entries cited, without tags or fusion partners. Where a name states a change or a piece, a line headed by the entry shows the natural chain unless it says otherwise. A line that says so, or that is headed by a name, gives the form on record, which may keep a tag or linker.
SUMO2-Ubl (P61956, form named): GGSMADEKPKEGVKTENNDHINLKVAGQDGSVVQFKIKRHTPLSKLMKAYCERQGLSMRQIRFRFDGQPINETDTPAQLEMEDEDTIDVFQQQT
SUMO2-Ubl G27V (P61956, form named): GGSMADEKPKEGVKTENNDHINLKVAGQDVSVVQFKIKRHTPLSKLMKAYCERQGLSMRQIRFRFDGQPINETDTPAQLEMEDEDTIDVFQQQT
SUMO2-Ubl G24A G27V (P61956, form named): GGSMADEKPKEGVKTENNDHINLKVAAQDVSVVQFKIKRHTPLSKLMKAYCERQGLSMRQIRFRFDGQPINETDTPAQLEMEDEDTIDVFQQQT

“SUMO2-Ubl (from UniProt P61956 1-91) (domain or fragment)” was tested, and the binding (SUMO2-Ubl) was “no binding”.
In the case of “SUMO2-Ubl G27V (from UniProt P61956 1-91) (domain or fragment)”, the binding (SUMO2-Ubl G27V) is reported as “no binding”.
In the case of “SUMO2-Ubl G24A G27V (from UniProt P61956 1-91) (domain or fragment)”, the binding (SUMO2-Ubl G24A G27V) is reported as “no binding”.

Source: paper PMC6720194
